# Some of the results follow. This is a noisy data set.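 Many melting curves are irregular; where none melted, Tm was taken as 64 °C.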
# Amino acid sequences for entries named in this document (tags omitted). A change or cut given only in a name is not applied to a line headed by its entry.
# UniProt P54802: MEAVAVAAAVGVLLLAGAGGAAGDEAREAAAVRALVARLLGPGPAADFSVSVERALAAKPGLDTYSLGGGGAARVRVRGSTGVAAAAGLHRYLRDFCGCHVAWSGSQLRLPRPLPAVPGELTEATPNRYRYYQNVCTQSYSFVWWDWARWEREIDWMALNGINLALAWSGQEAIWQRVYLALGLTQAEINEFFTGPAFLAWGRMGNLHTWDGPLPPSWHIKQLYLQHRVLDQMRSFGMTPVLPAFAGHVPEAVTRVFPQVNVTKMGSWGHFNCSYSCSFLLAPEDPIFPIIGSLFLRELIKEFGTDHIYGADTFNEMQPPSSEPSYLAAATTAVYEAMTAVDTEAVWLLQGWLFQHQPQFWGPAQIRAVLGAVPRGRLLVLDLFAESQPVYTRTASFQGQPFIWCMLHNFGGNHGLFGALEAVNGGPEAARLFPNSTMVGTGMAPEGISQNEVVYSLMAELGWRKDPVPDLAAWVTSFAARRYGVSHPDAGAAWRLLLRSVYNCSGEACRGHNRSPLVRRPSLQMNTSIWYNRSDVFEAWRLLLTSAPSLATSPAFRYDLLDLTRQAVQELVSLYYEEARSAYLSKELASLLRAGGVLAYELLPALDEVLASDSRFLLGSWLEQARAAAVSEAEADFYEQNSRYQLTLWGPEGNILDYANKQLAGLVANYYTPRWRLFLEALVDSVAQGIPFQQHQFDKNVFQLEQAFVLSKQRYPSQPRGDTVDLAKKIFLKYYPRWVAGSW
# UniProt P67775, whole entry: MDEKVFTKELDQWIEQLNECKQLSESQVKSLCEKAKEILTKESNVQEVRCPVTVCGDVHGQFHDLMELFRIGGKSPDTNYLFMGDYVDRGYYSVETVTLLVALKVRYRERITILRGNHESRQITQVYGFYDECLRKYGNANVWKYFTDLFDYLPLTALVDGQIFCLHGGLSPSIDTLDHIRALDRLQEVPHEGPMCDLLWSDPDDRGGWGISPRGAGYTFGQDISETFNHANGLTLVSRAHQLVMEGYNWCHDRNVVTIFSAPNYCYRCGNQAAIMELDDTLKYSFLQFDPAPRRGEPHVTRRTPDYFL
# UniProt P62699: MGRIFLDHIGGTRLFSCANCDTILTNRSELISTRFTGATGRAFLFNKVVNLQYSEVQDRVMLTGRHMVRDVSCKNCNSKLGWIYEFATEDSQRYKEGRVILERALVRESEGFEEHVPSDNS
# UniProt P63172, whole entry: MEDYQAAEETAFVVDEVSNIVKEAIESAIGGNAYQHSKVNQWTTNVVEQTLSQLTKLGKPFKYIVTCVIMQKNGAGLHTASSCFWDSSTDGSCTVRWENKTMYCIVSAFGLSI
# UniProt P51957: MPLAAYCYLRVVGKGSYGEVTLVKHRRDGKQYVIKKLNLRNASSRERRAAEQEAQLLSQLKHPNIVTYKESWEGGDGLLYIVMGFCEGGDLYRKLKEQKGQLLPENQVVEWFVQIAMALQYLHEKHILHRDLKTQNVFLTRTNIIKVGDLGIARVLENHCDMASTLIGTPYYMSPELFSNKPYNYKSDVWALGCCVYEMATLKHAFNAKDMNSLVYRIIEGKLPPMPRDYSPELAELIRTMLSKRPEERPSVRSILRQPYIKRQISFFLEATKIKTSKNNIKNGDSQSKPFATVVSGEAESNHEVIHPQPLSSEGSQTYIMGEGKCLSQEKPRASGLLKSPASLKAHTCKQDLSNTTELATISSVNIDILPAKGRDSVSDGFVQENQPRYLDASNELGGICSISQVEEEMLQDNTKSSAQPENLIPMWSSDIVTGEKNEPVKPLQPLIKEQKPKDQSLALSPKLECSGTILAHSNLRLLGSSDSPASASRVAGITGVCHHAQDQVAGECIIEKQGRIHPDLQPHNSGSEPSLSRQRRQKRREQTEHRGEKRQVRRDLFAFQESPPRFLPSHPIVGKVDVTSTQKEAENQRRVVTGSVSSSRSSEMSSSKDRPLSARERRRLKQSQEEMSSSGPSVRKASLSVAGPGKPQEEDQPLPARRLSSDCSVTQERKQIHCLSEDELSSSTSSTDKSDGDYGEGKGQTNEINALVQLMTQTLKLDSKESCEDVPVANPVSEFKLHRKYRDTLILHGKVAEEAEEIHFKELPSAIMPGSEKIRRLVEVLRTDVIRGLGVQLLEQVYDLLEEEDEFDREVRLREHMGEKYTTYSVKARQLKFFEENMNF
# UniProt P63027, whole entry: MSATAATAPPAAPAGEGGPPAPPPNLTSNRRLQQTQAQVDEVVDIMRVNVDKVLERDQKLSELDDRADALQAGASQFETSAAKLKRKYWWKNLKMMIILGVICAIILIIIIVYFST
# UniProt P53680: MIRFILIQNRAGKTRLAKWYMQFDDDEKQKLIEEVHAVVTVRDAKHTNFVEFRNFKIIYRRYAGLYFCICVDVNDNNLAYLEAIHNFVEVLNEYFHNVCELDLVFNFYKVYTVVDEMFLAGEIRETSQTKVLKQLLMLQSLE
# UniProt P62253: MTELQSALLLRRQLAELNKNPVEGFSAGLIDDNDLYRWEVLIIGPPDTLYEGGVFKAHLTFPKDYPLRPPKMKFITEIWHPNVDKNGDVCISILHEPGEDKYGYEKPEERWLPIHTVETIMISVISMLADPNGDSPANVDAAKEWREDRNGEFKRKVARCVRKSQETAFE
# UniProt P54578: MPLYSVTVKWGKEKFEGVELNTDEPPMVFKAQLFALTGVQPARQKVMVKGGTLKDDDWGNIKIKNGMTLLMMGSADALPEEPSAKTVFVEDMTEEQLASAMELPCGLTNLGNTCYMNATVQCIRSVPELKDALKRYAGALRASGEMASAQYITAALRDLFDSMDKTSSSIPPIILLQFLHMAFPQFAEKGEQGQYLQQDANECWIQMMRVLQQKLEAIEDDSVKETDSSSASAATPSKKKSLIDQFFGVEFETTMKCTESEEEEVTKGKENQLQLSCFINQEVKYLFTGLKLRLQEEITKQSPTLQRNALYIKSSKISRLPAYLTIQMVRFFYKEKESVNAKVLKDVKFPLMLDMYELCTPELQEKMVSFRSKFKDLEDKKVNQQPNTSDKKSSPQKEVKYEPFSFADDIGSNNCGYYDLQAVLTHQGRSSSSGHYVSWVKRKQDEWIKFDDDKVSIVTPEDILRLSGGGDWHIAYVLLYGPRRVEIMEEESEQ
# UniProt P52747: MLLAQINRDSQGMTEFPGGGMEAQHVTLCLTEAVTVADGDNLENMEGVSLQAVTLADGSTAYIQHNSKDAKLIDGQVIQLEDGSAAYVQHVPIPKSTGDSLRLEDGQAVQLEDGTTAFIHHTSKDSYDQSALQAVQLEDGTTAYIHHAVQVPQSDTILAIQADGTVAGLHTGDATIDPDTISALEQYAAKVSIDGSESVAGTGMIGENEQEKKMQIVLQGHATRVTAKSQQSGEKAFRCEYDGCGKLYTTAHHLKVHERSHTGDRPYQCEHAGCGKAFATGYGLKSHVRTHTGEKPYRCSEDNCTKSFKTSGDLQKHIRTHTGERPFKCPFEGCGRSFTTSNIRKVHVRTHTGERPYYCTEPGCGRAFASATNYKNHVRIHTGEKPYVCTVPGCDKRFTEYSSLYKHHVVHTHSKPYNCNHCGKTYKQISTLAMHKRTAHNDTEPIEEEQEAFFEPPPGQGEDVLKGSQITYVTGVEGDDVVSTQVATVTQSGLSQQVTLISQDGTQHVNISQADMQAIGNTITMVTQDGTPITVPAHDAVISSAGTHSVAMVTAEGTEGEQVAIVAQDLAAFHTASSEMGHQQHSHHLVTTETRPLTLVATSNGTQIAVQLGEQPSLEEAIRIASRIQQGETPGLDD
# UniProt P54252: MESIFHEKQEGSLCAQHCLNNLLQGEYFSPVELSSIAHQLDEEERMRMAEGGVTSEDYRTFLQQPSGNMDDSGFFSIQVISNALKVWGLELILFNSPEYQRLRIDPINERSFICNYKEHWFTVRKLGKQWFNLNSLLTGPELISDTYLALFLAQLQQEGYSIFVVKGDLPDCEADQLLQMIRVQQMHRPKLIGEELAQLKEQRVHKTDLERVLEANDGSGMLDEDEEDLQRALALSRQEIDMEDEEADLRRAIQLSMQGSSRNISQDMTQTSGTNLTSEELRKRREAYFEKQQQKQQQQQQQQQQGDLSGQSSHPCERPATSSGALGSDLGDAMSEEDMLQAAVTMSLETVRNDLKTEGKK
# UniProt P62306, whole entry, looked up: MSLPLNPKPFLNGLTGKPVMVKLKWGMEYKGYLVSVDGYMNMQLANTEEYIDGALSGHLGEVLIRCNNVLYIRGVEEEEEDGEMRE
# UniProt P56645: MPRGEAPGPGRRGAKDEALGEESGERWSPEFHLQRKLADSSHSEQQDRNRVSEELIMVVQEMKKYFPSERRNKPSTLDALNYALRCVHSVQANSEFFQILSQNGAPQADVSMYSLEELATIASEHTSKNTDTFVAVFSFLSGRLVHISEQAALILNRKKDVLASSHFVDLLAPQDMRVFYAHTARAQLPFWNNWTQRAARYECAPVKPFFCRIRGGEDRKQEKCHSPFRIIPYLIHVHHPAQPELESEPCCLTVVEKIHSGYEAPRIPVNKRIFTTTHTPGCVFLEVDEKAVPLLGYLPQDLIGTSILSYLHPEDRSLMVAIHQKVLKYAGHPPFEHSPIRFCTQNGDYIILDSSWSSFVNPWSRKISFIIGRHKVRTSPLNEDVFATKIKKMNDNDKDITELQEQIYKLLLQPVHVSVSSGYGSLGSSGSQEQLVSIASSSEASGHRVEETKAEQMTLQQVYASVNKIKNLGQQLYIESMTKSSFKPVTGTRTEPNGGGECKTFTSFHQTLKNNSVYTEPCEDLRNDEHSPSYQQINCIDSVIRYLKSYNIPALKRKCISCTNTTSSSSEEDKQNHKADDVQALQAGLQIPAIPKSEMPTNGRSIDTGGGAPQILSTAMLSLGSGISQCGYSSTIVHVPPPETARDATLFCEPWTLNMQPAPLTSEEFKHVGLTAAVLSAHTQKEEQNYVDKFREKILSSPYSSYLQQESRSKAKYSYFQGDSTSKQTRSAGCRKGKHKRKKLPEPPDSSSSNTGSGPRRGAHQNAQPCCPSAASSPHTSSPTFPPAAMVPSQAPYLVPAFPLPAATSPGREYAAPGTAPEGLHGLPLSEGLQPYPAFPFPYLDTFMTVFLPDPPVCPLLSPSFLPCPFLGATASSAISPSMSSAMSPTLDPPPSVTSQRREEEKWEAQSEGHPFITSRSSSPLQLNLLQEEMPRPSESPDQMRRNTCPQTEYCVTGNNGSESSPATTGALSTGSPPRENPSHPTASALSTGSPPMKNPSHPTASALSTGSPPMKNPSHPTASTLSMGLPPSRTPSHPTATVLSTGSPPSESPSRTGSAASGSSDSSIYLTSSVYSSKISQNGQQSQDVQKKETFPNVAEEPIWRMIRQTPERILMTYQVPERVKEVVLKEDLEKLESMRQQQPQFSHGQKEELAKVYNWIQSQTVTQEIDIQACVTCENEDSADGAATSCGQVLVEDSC
# UniProt P61803: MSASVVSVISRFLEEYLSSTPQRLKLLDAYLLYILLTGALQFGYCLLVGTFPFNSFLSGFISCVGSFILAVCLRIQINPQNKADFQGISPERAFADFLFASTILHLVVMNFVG
# UniProt P57764: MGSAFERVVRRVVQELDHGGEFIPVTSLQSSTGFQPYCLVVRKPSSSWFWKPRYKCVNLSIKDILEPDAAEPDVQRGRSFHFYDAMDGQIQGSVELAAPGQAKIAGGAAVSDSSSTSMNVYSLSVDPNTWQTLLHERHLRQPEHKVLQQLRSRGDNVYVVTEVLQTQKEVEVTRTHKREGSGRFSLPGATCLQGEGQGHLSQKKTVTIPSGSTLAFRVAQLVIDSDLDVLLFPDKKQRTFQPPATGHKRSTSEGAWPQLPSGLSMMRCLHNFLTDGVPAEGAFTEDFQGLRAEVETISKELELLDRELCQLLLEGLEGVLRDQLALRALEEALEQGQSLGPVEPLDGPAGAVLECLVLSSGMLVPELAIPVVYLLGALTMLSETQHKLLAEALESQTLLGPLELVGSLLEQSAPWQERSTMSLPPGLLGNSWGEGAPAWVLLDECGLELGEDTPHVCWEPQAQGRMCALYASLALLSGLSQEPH
# UniProt P62256: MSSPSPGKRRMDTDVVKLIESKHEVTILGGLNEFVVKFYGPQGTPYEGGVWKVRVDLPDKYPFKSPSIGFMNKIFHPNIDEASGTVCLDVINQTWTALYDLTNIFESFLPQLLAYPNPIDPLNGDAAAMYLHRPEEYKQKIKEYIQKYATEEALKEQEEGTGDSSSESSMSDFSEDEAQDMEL
# UniProt P62333, whole entry: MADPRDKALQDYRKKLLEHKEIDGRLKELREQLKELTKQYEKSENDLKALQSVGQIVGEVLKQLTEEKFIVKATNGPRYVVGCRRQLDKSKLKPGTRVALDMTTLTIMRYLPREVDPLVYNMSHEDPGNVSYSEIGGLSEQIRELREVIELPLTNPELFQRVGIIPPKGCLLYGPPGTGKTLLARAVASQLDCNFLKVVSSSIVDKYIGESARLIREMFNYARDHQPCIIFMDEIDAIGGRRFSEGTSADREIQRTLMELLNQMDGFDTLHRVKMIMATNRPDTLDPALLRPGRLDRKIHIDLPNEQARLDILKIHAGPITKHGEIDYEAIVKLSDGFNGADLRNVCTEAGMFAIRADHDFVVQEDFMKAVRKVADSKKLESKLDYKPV
# Compound: CCc1cnccc1C(=O)Nc1cc2c(cc1F)NC(=O)CC2
# Experiment: melting temperature shift (DMSO Tm minus MBE1-treated Tm) in cellular thermal proteome profiling; higher = less thermal stabilization by MBE1 (negative = stabilized by MBE1)
# Details: A375; MBE1 concentration: 100 nM
row,Target,melting temperature shift [°C]
1,HK2 (UniProt P52789),-1.33
2,NAGLU (UniProt P54802),-2.69
3,PPP2CA (UniProt P67775),-0.335
4,YPEL5 (UniProt P62699),0.641
5,RRAS2 (UniProt P62070),-2.06
6,HIST1H4A (UniProt P62805),1.97
7,UniProt P63172,0.0427
8,NEK4 (UniProt P51957),-2.02
9,RPS3A (UniProt P61247),-0.757
10,KIF11 (UniProt P52732),-0.927
11,UniProt P68133,-0.27
12,UniProt P63027,-4.2
13,RACK1 (UniProt P63244),-0.605
14,AP2S1 (UniProt P53680),0.25
15,UBE2G1 (UniProt P62253),-0.818
16,USP14 (UniProt P54578),0.434

# Look-ups from the results shown:
# For melting temperature shift [°C], YPEL5 (UniProt P62699) is entered as 0.641
# For melting temperature shift [°C], UniProt P63027 is entered as -4.2

# Next part.

row,Target,melting temperature shift [°C]
1,HNRNPA3 (UniProt P51991),0.183
2,PGD (UniProt P52209),-0.201
3,ZNF143 (UniProt P52747),0.153
4,ATXN3 (UniProt P54252),-0.593
5,SNRPF (UniProt P62306),0.476
6,PPP4C (UniProt P60510),-1.47
7,RPS4X (UniProt P62701),-0.733
8,UniProt P56645,-0.228
9,UniProt P61803,-1.56
10,ADAR (UniProt P55265),-0.787
11,GSDMD (UniProt P57764),-1.49
12,RPL27 (UniProt P61353),-0.226
13,UBE2H (UniProt P62256),-0.713
14,PSMC6 (UniProt P62333),-0.49
15,MFAP1 (UniProt P55081),0
16,CASP6 (UniProt P55212),0.576

# — the supplement of paper PMC12595434, “Development of retinoid nuclear receptor pathway antagonists through targeting aldehyde dehydrogenase 1A3” (iScience, 2025)
